{"source": "PubChem BioAssay AID504804 (Drosophila RNAi Screening Center, 2011)", "purpose": "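Fly genes whose loss lessens doxorubicin-driven cell death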 (primary screen)", "cells": "Drosophila Kc cells", "knock-down reagent": "long dsRNA against Drosophila genes, 0.5 µg dsRNA per well", "timing": "96 h (48 h knock-down, then 48 h drug)", "treatment": "doxorubicin 5 µg/ml for 48 h, added 48 h after dsRNA", "measured": "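Viability measured as cellular ATP by luminescence after 48 h knock-down then 48 h doxorubicin at 5 µg/ml; unnormalised plate counts for each replicate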", "reading the numbers": "raw ATP luminescence: higher = more viable cells, protection from doxorubicin", "active means": "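Active when both duplicate wells lie at least 2 SD above the plate mean and protection is confirmed by rescreening and independent dsRNAs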", "note": "The screen tested about 19,000 reagents; shown is an unselected part of those with a known target gene and a result. In the full data, 47 (0.25%) got an active call. 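Signals are raw, not normalised; exact z-scores behind calls not deposited; actives needed confirmation, so some wells reaching 2 SD are inactive.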 A number with no mark means an inactive call. Reagents against one gene are numbered here. Names joined by + are all predicted targets of the reagent."}
{"gene knocked down":"l(3)72Dn","reagent":1,"raw ATP luminescence, replicate 1":19357,"raw ATP luminescence, replicate 2":23310}
{"gene knocked down":"Oseg5","reagent":1,"raw ATP luminescence, replicate 1":63460,"raw ATP luminescence, replicate 2":50923}
{"gene knocked down":"CG4553","reagent":1,"raw ATP luminescence, replicate 1":40370,"raw ATP luminescence, replicate 2":44490}
{"gene knocked down":"CG13049","reagent":1,"raw ATP luminescence, replicate 1":47400,"raw ATP luminescence, replicate 2":42687}
{"gene knocked down":"Pld","reagent":1,"raw ATP luminescence, replicate 1":67067,"raw ATP luminescence, replicate 2":60100}
{"gene knocked down":"tobi","reagent":1,"raw ATP luminescence, replicate 1":60750,"raw ATP luminescence, replicate 2":55340}
{"gene knocked down":"CG7341","reagent":1,"raw ATP luminescence, replicate 1":35020,"raw ATP luminescence, replicate 2":32793}
{"gene knocked down":"CG17493","reagent":1,"raw ATP luminescence, replicate 1":48123,"raw ATP luminescence, replicate 2":51560}
{"gene knocked down":"CG30350","reagent":1,"raw ATP luminescence, replicate 1":49057,"raw ATP luminescence, replicate 2":87447}

Targets above whose target name begins with C or c:
{"gene knocked down":"CG4553","reagent":1,"raw ATP luminescence, replicate 1":40370,"raw ATP luminescence, replicate 2":44490}
{"gene knocked down":"CG13049","reagent":1,"raw ATP luminescence, replicate 1":47400,"raw ATP luminescence, replicate 2":42687}
{"gene knocked down":"CG7341","reagent":1,"raw ATP luminescence, replicate 1":35020,"raw ATP luminescence, replicate 2":32793}
{"gene knocked down":"CG17493","reagent":1,"raw ATP luminescence, replicate 1":48123,"raw ATP luminescence, replicate 2":51560}
{"gene knocked down":"CG30350","reagent":1,"raw ATP luminescence, replicate 1":49057,"raw ATP luminescence, replicate 2":87447}

The list goes on:
{"gene knocked down":"cyp33 + CG34194","reagent":1,"raw ATP luminescence, replicate 1":1.35e5,"raw ATP luminescence, replicate 2":95747}
{"gene knocked down":"GLS","reagent":1,"raw ATP luminescence, replicate 1":42257,"raw ATP luminescence, replicate 2":43283}
{"gene knocked down":"CtsK2","reagent":1,"raw ATP luminescence, replicate 1":82303,"raw ATP luminescence, replicate 2":75283}
{"gene knocked down":"CG7530","reagent":1,"raw ATP luminescence, replicate 1":80923,"raw ATP luminescence, replicate 2":44830}
{"gene knocked down":"CG13299","reagent":1,"raw ATP luminescence, replicate 1":70783,"raw ATP luminescence, replicate 2":71163}
{"gene knocked down":"CG31109","reagent":1,"raw ATP luminescence, replicate 1":70630,"raw ATP luminescence, replicate 2":58100}
{"gene knocked down":"Noc1","reagent":1,"raw ATP luminescence, replicate 1":48590,"raw ATP luminescence, replicate 2":37717}
{"gene knocked down":"skd","reagent":1,"raw ATP luminescence, replicate 1":76943,"raw ATP luminescence, replicate 2":75413}
{"gene knocked down":"kibra","reagent":1,"raw ATP luminescence, replicate 1":60370,"raw ATP luminescence, replicate 2":74580}
{"gene knocked down":"kibra","reagent":2,"raw ATP luminescence, replicate 1":18920,"raw ATP luminescence, replicate 2":20020}
{"gene knocked down":"CG9143","reagent":1,"raw ATP luminescence, replicate 1":60400,"raw ATP luminescence, replicate 2":67030}
{"gene knocked down":"CG32121","reagent":1,"raw ATP luminescence, replicate 1":83590,"raw ATP luminescence, replicate 2":82103}
{"gene knocked down":"Fum3","reagent":1,"raw ATP luminescence, replicate 1":72447,"raw ATP luminescence, replicate 2":66653}
{"gene knocked down":"CG30105","reagent":1,"raw ATP luminescence, replicate 1":1.25e5,"raw ATP luminescence, replicate 2":1.26e5}
{"gene knocked down":"CG7203","reagent":1,"raw ATP luminescence, replicate 1":54900,"raw ATP luminescence, replicate 2":77523}
{"gene knocked down":"MTF-1","reagent":1,"raw ATP luminescence, replicate 1":1.42e5,"raw ATP luminescence, replicate 2":1.68e5}
{"gene knocked down":"MTF-1","reagent":2,"raw ATP luminescence, replicate 1":86910,"raw ATP luminescence, replicate 2":78517}
{"gene knocked down":"CG12825","reagent":1,"raw ATP luminescence, replicate 1":51120,"raw ATP luminescence, replicate 2":1.00e5}
{"gene knocked down":"smg","reagent":1,"raw ATP luminescence, replicate 1":52067,"raw ATP luminescence, replicate 2":42170}
